Publication PMC7022808
No constants are given. Whether binding was seen depends on the method and setting. Some binding calls cover weakened binding; strength is not graded here.

Amino acid sequences for entries named in this document (tags omitted).
UniProt P26465: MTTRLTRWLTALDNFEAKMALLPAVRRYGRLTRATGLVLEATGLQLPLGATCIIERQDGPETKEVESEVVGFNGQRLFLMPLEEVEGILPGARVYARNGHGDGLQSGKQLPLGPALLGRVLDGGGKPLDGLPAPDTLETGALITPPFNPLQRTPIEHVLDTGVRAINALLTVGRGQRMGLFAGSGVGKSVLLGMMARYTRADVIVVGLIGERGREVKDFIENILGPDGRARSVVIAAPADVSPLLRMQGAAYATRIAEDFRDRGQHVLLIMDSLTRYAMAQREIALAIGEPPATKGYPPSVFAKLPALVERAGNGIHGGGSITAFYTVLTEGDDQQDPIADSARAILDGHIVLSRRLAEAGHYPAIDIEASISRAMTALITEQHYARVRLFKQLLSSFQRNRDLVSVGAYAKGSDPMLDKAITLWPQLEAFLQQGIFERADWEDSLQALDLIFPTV

Key:
[1] = target: FliH (Salmonella typhimurium) (UniProt P15934); experiment: co-purification; FliH co-expressed with His-FliI from one plasmid; purified as a complex by the method of ref. 29, steps not told here
[2] = target: FliI ATPase (Salmonella typhimurium) (UniProt P26465); experiment: as above

B1: FliH (protein, UniProt P15934 1-235)
chain: MSNELPWQVWTPDDLAPPPETFVPVEADNVTLTEDTPEPELTAEQQLEQELAQLKIQAHEQGYNAGLAEGRQKGHAQGYQEGLAQGLEQGQAQAQTQQAPIHARMQQLVSEFQNTLDALDSVIASRLMQMALEAARQVIGQTPAVDNSALIKQIQQLLQQEPLFSGKPQLRVHPDDLQRVEEMLGATLSLHGWRLRGDPTLHHGGCKVSADEGDLDASVATRWQELCRLAAPGVL
B1 was tested, and the binding [1] was “binds” and the binding [2] was “binds”.
